Results as given in PubChem BioAssay AID2685 (National Center for Advancing Translational Sciences (NCATS), 2010).
This is one part of the list. Further columns of the screen follow, without active or inactive calls. The list favours compounds with an active or inconclusive main result. Potencies come from curve fits of mixed quality, noted in brackets.

Test: qHTS Assay for Lipid Storage Modulators in Drosophila S3 Cells;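 as to cell number change: cells counted by Cell Tracker Red CMTPX staining in the red channel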
Conditions: BODIPY lipid droplet fluorescence, 18-24 h; for cell number change: measured here: cell count max response, cells fed with added oleic acid
In short: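 Drosophila S3 cells got compounds at several concentrations plus oleic acid (400 uM solution). Laser-scanning cytometry with 488 nm excitation read lipid droplets at 500-530 nm and cells at 575-640 nm. Percent activity was relative to 20 uM Triacsin C.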

[1] = measured here: lipid fluorescence (Fed channel) AC50, cells fed with added oleic acid
[2] = measured here: cell number channel AC50, cells fed with added oleic acid

Row | SMILES | cell number change [%] | AC50 [1] | AC50 [2]
1 | COc1ccc(OCc2cc(C(=O)NC3CCc4ccccc43)no2)c(Cl)c1 (stereo not drawn) | -11.6 | 0.58 µM [falling, single point] | –
2 | Cc1nnc(Nc2ccc3c(c2)OCO3)c2ccccc12 | -2.89 | 0.0291 µM [rising, full curve, poor fit] | –
3 | Cc1cc(C)n2nc(C(=O)Nc3nccs3)nc2n1 | -42.8 | 0.651 µM [falling, partial curve] | 4.11 µM [falling, full curve]
4 | CCOC(=O)CSc1nnc(CNC(=O)c2ccc([N+](=O)[O-])cc2)n1C | 48.9 | – | 0.0058 µM [falling, full curve, poor fit]
5 | CCCCCC(=O)N[C@@H](c1ccccc1)[C@@H](O)C(=O)O[C@H]1C[C@@]2(O)[C@@H](OC(=O)c3ccccc3)C3[C@](C)(C(=O)[C@H](OC(C)=O)C(=C1C)C2(C)C)[C@@H](O)C[C@H]1OC[C@@]31OC(C)=O (stereo partly drawn) | -11.3 | – | –
6 | CCc1c(C(=O)NCCc2ccc(OC)c(OC)c2)[nH]c(C)c1C(C)=O | 259 | 16.4 µM [rising, partial curve] | 14.6 µM [rising, partial curve]
7 | COc1ccc(CCN(Cc2cc3cc(C)c(C)cc3nc2Cl)C(=O)C2CC2)cc1 | 6.13 | 6.51 µM [falling, single point] | –
8 | N#Cc1ccccc1OCC(=O)OCCCOC(=O)COc1ccccc1C#N | 13.5 | 29.1 µM [falling, single point] | –
9 | CN(Cc1cccs1)C(=O)Cn1cnc2ccccc2c1=O | 16.7 | – | –
10 | O=C(NCC1CCCO1)C(c1cccs1)N(Cc1cccs1)C(=O)c1ccc(-c2ccccc2)[nH]1 (stereo not drawn) | 4.37 | 2.06 µM [rising, full curve, poor fit] | –
11 | Cc1ccc2nc3c(cc(C(=O)NCC4CCCO4)c(=N)n3CC3CCCO3)c(=O)n2c1 (stereo not drawn) | 34.3 | – | 5.8 µM [rising, partial curve]
12 | Cc1cc2ncc(-c3cccs3)nc2cc1C | 101 | 2.91 µM [rising, single point] | 14.6 µM [rising, partial curve, poor fit]
13 | COC(=O)c1sc(N)c(C(=O)OC)c1CSc1nnc(-c2ccccc2Cl)n1C | 37.1 | 0.00517 µM [falling, full curve, poor fit] | 1.64 µM [rising, full curve]
14 | C[C@]12CC[C@@H]3c4ccc(O)cc4CC[C@H]3[C@@H]1CC[C@@H]2O | 2.61 | 20.6 µM [falling, partial curve] | –
15 | O=C(NC1(C(F)(F)F)C(=O)Nc2c1c(=O)[nH]c(=O)n2Cc1ccco1)C1CCCCC1 (stereo not drawn) | -80.8 | 0.58 µM [rising, single point] | 18.4 µM [falling, single point]
16 | O=C(Cc1ccccc1)c1c[nH]c(C(=O)NCCCN2CCOCC2)c1 | -3.39 | 1.46 µM [falling, partial curve] | 0.92 µM [falling, full curve, poor fit]
17 | Fc1ccc(C2c3cccn3CCN2C(=S)Nc2cccc(F)c2)cc1 (stereo not drawn) | 20.4 | – | 0.517 µM [falling, single point]
18 | CCOC(=O)c1[nH]c(C)c(C(=O)OCC(=O)NC(=O)NC(C)(C)C)c1C | 1.79 | 1.64 µM [rising, full curve] | –
19 | CC1CCC(NC(=O)COC(=O)C2=NN(c3ccccc3)C(=O)CC2)CC1 (stereo not drawn) | -2.9 | – | –
20 | COc1cc(OC)cc(C(=O)OCC(=O)Nc2cccc(C(C)=O)c2)c1 | 36.3 | 6.51 µM [rising, single point] | 23.1 µM [rising, partial curve, poor fit]

Row | SMILES | cell number change [%] | AC50 [1] | AC50 [2]
21 | COc1ccc(OC)c(C(=O)CSc2nnc(-c3cccs3)o2)c1 | -0.593 | – | 1.84 µM [rising, partial curve]
22 | C=CCc1ccc(OCCOc2ccc(/C=N/n3cnnc3)cc2OCC)c(OC)c1 | -4.34 | 25.9 µM [rising, partial curve, poor fit] | –
23 | Cc1ccc(S(=O)(=O)N2CCCCC2)c2nsnc12 | -11.8 | – | –
24 | COC(=O)/C(C#N)=C/c1c(N2CCN(c3ccccc3)CC2)nc2c(C)cccn2c1=O | 2.78 | – | –
25 | Cc1ccc(Nc2nc(N)c([N+](=O)[O-])c(N3CCOCC3)n2)cc1 | -1.99 | 4.11 µM [rising, single point] | –
26 | O=C(O)CCC(=O)NN1C(=O)c2ccccc2NC1c1ccc(F)cc1 (stereo not drawn) | -38.9 | – | –
27 | Cc1ccc(NC(=O)c2cc(-n3cnnc3)ccc2Cl)c(C)c1 | -1.3 | 2.59 µM [rising, partial curve, poor fit] | –
28 | Cc1ccsc1/C=N/NC(=O)CNC(=O)c1c(F)cccc1Cl | -2.97 | – | –
29 | CN(C)CCCn1c2c(c(SCC(=O)Nc3ccc4c(c3)OCO4)nc1=O)CCCC2 | -13.7 | 13 µM [rising, partial curve] | –
30 | COc1ccc(S(=O)(=O)N2CCN=C2SCc2cccc(C)c2)cc1 | 28 | 2.82 µM [rising, partial curve, poor fit] | –
31 | O=C(Nc1nnc(C2CC2)s1)c1cc(S(=O)(=O)N2CCCCC2)ccc1N1CCOCC1 | 15.5 | 10.3 µM [rising, partial curve] | –
32 | Cc1cc(C)cc(NC(=O)C2CCCN(S(=O)(=O)c3cnc[nH]3)C2)c1 (stereo not drawn) | 35.9 | – | 0.058 µM [rising, full curve, poor fit]
33 | CCC(C(=O)OCC(=O)c1ccc(OC)cc1OC)c1ccccc1 (stereo not drawn) | -35 | – | 16.4 µM [falling, single point]
34 | CC(=O)NC(c1ccco1)c1cc(Cl)c2ccc(N(C)C)nc2c1O (stereo not drawn) | -11.7 | 29.1 µM [rising, single point] | –
35 | COc1ccc(NS(=O)(=O)c2ccc3ccccc3c2)c2ncccc12 | -14.5 | 35.5 µM [falling, single point] | –
36 | Clc1ccc2c(c1)C(C1=NCCN1)c1ccccc1CS2 (stereo not drawn) | 47.1 | 29.1 µM [rising, single point] | 0.82 µM [rising, full curve, poor fit]
37 | Cc1nn(C)c(C(=O)NC(=S)Nc2ccc([N+](=O)[O-])cc2)c1Cl | -39 | – | 9.2 µM [falling, partial curve]
38 | Clc1ccccc1CN(Cc1ccco1)Cc1nnnn1C1CCCC1 | -11.6 | 8.2 µM [falling, partial curve, poor fit] | –
39 | O=C(O)CSc1nc(-c2ccccc2)nc2c1CCCC2 | -43.1 | 29.1 µM [falling, single point] | 16.4 µM [falling, single point]
40 | O=Cc1[nH]c2ccccc2c1N(C(=O)CCl)c1ccc([N+](=O)[O-])cc1 | -18.1 | 3.66 µM [falling, full curve] | 4.11 µM [falling, single point]

Given tab-delimited: entries from further up.
Row	SMILES	cell number change [%]	AC50 [1]	AC50 [2]
12	Cc1cc2ncc(-c3cccs3)nc2cc1C	101	2.91 µM [rising, single point]	14.6 µM [rising, partial curve, poor fit]
13	COC(=O)c1sc(N)c(C(=O)OC)c1CSc1nnc(-c2ccccc2Cl)n1C	37.1	0.00517 µM [falling, full curve, poor fit]	1.64 µM [rising, full curve]
14	C[C@]12CC[C@@H]3c4ccc(O)cc4CC[C@H]3[C@@H]1CC[C@@H]2O	2.61	20.6 µM [falling, partial curve]	–
15	O=C(NC1(C(F)(F)F)C(=O)Nc2c1c(=O)[nH]c(=O)n2Cc1ccco1)C1CCCCC1 (stereo not drawn)	-80.8	0.58 µM [rising, single point]	18.4 µM [falling, single point]
16	O=C(Cc1ccccc1)c1c[nH]c(C(=O)NCCCN2CCOCC2)c1	-3.39	1.46 µM [falling, partial curve]	0.92 µM [falling, full curve, poor fit]
17	Fc1ccc(C2c3cccn3CCN2C(=S)Nc2cccc(F)c2)cc1 (stereo not drawn)	20.4	–	0.517 µM [falling, single point]
18	CCOC(=O)c1[nH]c(C)c(C(=O)OCC(=O)NC(=O)NC(C)(C)C)c1C	1.79	1.64 µM [rising, full curve]	–
19	CC1CCC(NC(=O)COC(=O)C2=NN(c3ccccc3)C(=O)CC2)CC1 (stereo not drawn)	-2.9	–	–
20	COc1cc(OC)cc(C(=O)OCC(=O)Nc2cccc(C(C)=O)c2)c1	36.3	6.51 µM [rising, single point]	23.1 µM [rising, partial curve, poor fit]
21	COc1ccc(OC)c(C(=O)CSc2nnc(-c3cccs3)o2)c1	-0.593	–	1.84 µM [rising, partial curve]
22	C=CCc1ccc(OCCOc2ccc(/C=N/n3cnnc3)cc2OCC)c(OC)c1	-4.34	25.9 µM [rising, partial curve, poor fit]	–
23	Cc1ccc(S(=O)(=O)N2CCCCC2)c2nsnc12	-11.8	–	–
24	COC(=O)/C(C#N)=C/c1c(N2CCN(c3ccccc3)CC2)nc2c(C)cccn2c1=O	2.78	–	–
25	Cc1ccc(Nc2nc(N)c([N+](=O)[O-])c(N3CCOCC3)n2)cc1	-1.99	4.11 µM [rising, single point]	–
26	O=C(O)CCC(=O)NN1C(=O)c2ccccc2NC1c1ccc(F)cc1 (stereo not drawn)	-38.9	–	–

Next compounds:

Row | SMILES | cell number change [%] | AC50 [1] | AC50 [2]
41 | Cc1cc(NC(=O)CSc2nnc(-c3ccc(S(=O)(=O)N4CCCC4)cc3)n2C)no1 | 3.23 | 0.0291 µM [falling, full curve] | –
42 | CC(=O)Nc1ccc(NC(=O)CSc2nnc(-c3cccs3)n2C)cc1 | 14.1 | – | –
43 | CC1=C(C#N)C(Nc2cc(C)ccn2)(C(F)(F)F)C(=O)N1 (stereo not drawn) | 37.2 | 3.66 µM [rising, single point] | 7.31 µM [rising, partial curve]
44 | COc1ccc(NC(=S)NNC(=O)C(C)n2nc(C)c([N+](=O)[O-])c2C)cc1 (stereo not drawn) | 38.4 | 7.31 µM [rising, partial curve] | 8.2 µM [rising, partial curve]
45 | COc1ccccc1N(C)S(=O)(=O)c1ccc(Cl)c(C(=O)NNC(=O)c2ccccc2O)c1 | -7.03 | 6.51 µM [falling, single point] | –
46 | COc1ccc(O)c(-c2nc(N)nc(N)n2)c1 | -22.5 | 0.366 µM [rising, single point] | –
47 | COc1cc(-c2nnc3sc(-c4cccs4)nn23)cc(OC)c1OC | -6.56 | 0.651 µM [rising, single point] | –
48 | Nc1ccccc1SCc1cn2ccccc2n1 | 25.5 | 8.2 µM [rising, partial curve] | –
49 | CC(OC(=O)Cc1coc2ccc3ccccc3c12)C(=O)Nc1ncc(Cl)cc1Cl (stereo not drawn) | 24.3 | – | –
50 | Cc1cc(C(C#N)c2ccccc2)n2ncnc2n1 (stereo not drawn) | 9.15 | – | 0.731 µM [falling, single point]
51 | CC1CN(c2ccc(NC(=S)NNCCC#N)cc2)CC(C)O1 (stereo not drawn) | 48.8 | 2.06 µM [rising, full curve] | 9.2 µM [rising, partial curve]
52 | CC(C)(C)c1ccc(C(=O)Oc2ccc3c(c2)OCC3=O)cc1 | -39.5 | 0.58 µM [falling, full curve] | 0.82 µM [falling, full curve]
53 | O=C(NCc1ccc2c(c1)OCO2)C1CCN(S(=O)(=O)c2ccc(Br)s2)CC1 | 5.75 | 9.2 µM [rising, partial curve] | –
54 | COc1ccc(-c2cc(-c3ccc(OC)c(OC)c3)n[nH]2)c(O)c1 | -7.6 | – | –
55 | CCOC(=O)c1c(C)n(C)c2ccc(OC)c(NC(=O)CN3CCN(C(=O)c4ccco4)CC3)c12 | -7.22 | 0.00461 µM [rising, full curve, poor fit] | –
56 | CC1CCCCN1CC(=O)Nc1ccc2c(c1)OCO2 (stereo not drawn) | -5.18 | 11.6 µM [rising, partial curve, poor fit] | –
57 | c1ccc(Nc2ccccc2)cc1 | 24.5 | – | –
58 | Cc1ccc(/C=C/C2=NN(Cc3ccc(Cl)c(Cl)c3)C(=O)CC2)cc1 | -18.6 | – | –
